# Results taken from patent US20100137275A1 (IPSEN PHARMA S.A.S., priority 2007, published 2010).
# Some results were stated once for a whole list of compounds, not compound by compound.
# Target: T1, purified recombinant Cdc25-C enzyme (MBP-Cdc25C protein) (Homo sapiens, UniProt P30307)
# T1 construct: made in house
# T1 sequence (P30307 1-473): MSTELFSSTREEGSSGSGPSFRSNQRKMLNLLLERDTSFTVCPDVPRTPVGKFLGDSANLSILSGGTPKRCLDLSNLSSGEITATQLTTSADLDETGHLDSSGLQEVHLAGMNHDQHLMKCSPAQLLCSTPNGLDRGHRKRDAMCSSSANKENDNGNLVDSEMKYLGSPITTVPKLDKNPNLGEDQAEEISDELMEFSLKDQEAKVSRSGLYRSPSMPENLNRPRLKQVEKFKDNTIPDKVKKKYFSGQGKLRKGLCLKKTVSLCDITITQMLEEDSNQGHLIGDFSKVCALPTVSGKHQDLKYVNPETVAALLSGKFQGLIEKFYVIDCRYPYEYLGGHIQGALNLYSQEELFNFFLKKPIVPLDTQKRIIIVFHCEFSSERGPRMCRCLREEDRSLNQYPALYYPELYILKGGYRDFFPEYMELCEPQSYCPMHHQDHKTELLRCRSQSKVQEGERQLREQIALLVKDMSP
# Assay: Phosphatase activity of the purified recombinant Cdc25C enzyme (OMFP dephosphorylation, fluorescence)
# Type: biochemical
# Details: OMFP 500 μM, 4 hours at 30° C.
# Method: The phosphatase activity of the MBP-Cdc25C protein is evaluated through its dephosphorylation of 3-O-methylfluorescein-phosphate (OMFP) to form 3-O-methylfluorescein (OMF), determining the fluorescence of the reaction product at 475 nm. This assay can be used to identify inhibitors of the recombinant Cdc25 enzyme. The preparation of the MBP-Cdc25C fusion protein is described in patent application PCT WO 01/44467.
# The reaction is performed in 384-well plates in a final volume of 50 μl. The MBP-Cdc25C protein (prepared as described hereinabove) is stored in the following elution buffer: 20 mM Tris-HCl pH 7.4; 250 mM NaCl; 1 mM EDTA; 1 mM dithiothreitol (DTT); 10 mM maltose. It is diluted to a concentration of 60 μM in the following reaction buffer: 50 mM Tris-HCl pH 8.2; 50 mM NaCl; 1 mM DTT; 20% glycerol. The background noise is determined using with the buffer without addition of the enzyme. The products are tested at decreasing concentrations from 40 μM. The reaction is initiated by the addition of a solution OMFP to a final concentration of 500 μM (prepared immediately before use from a 12.5 mM stock solution in 100% DMSO (Sigma #M2629)). After 4 hours at 30° C. in a disposable 384-well plate, the fluorescence measured at OD 475 nm is read on a Victor^2 plate reader (EGG-Wallac). The concentration that produces 50% inhibition of the enzyme reaction is calculated from three independent experiments. Only the values that fall within the linear part of the sigmoid curve are used for the linear regression analysis.
row,Compound,IC50
1,"CN(CCNC(=S)Nc1ccc(-c2cnco2)cc1)CCNc1cc(N2CCCC2)nc(N2CCCC2)n1 [Example 33, N-{2-[{2-[(2,6-dipyrrolidin-1-ylpyrimidin-4-yl)amino]ethyl}(methyl)amino]ethyl}-N′-[4-(1,3-oxazol-5-yl)phenyl]thiourea]",≤ 10 µM
2,"CN(CCNC(=S)Nc1ccc(Cl)cc1)CCNc1cc(N2CCCCC2)nc(N2CCCCC2)n1 [Example 69, N-(4-chlorophenyl)-N′-{2-[{2-[(2,6-dipiperidin-1-ylpyrimidin-4-yl)amino]ethyl}(methyl)amino]ethyl}thiourea]",≤ 10 µM
3,"COc1ccc(NC(=S)NCCN(C)CCNc2cc(N3CCCC3)nc(N3CCCC3)n2)cc1 [Example 35, N-{2-[{2-[(2,6-dipyrrolidin-1-ylpyrimidin-4-yl)amino]ethyl}(methyl)amino]ethyl}-N′-(4-methoxyphenyl)thiourea]",≤ 10 µM
4,"CN(CCNC(=S)Nc1ccc(Cl)c(Cl)c1)CCNc1cc(N2CCCC2)nc(N2CCCC2)n1 [Example 55, N-(3,4-dichlorophenyl)-N′-{2-[{2-[(2,6-dipyrrolidin-1-ylpyrimidin-4-yl)amino]ethyl}(methyl)amino]ethyl}thiourea]",≤ 10 µM
5,"CN(CCNC(=O)c1ccc(C(=O)c2ccccc2)cc1)CCNc1cc(N2CCCC2)nc(N2CCCC2)n1 [Example 83, 4-benzoyl-N-{2-[{2-[(2,6-dipyrrolidin-1-ylpyrimidin-4-yl)amino]ethyl}(methyl)amino]ethyl}benzamide]",≤ 10 µM
6,"O=C(NCCCCCNc1cc(N2CCCC2)nc(N2CCCC2)n1)Nc1ccc(Cl)cc1 [Example 19, N-(4-chlorophenyl)-N′-{5-[(2,6-dipyrrolidin-1-ylpyrimidin-4-yl)amino]pentyl}urea]",≤ 10 µM
7,"CN(CCNC(=S)Nc1ccc(C(C)(C)C)cc1)CCNc1cc(N2CCCC2)nc(N2CCCC2)n1 [Example 44, N-(4-tert-butylphenyl)-N′-{2-[{2-[(2,6-dipyrrolidin-1-ylpyrimidin-4-yl)amino]ethyl}(methyl)amino]ethyl}thiourea]",≤ 10 µM
8,"Cc1cc(C)nc(NS(=O)(=O)c2ccc(NC(=S)NCCN(C)CCNc3cc(N4CCCC4)nc(N4CCCC4)n3)cc2)n1 [Example 50, N-(4,6-dimethylpyrimidin-2-yl)-4-{[({2-[{2-[(2,6-dipyrrolidin-1-ylpyrimidin-4-yl)amino]ethyl}(methyl)amino]ethyl}amino)carbonothioyl]amino}benzenesulfonamide]",≤ 10 µM
9,"CN(CCNC(=S)Nc1ccc(OC(F)(F)F)cc1)CCNc1cc(N2CCCC2)nc(N2CCCC2)n1 [Example 23, N-{2-[{2-[(2,6-dipyrrolidin-1-ylpyrimidin-4-yl)amino]ethyl}(methyl)amino]ethyl}-N′-[4-(trifluoromethoxy)phenyl]thiourea]",≤ 10 µM
10,"CN(CCNC(=O)Nc1ccc(Cl)c(Cl)c1)CCNc1cc(N2CCCC2)nc(N2CCCC2)n1 [Example 17, N-(3,4-dichlorophenyl)-N′-{2-[{2-[(2,6-dipyrrolidin-1-ylpyrimidin-4-yl)amino]ethyl}(methyl)amino]ethyl}urea]",≤ 10 µM
11,"CN(CCNC(=S)Nc1ccc(Cl)c(C(F)(F)F)c1)CCNc1cc(N2CCCC2)nc(N2CCCC2)n1 [Example 54, N-[4-chloro-3-(trifluoromethyl)phenyl]-N′-{2-[{2-[(2,6-dipyrrolidin-1-ylpyrimidin-4-yl)amino]ethyl}(methyl)amino]ethyl}thiourea]",≤ 10 µM
12,"CN(CCNC(=S)Nc1ccc(S(N)(=O)=O)cc1)CCNc1cc(N2CCCC2)nc(N2CCCC2)n1 [Example 61, 4-{[({2-[{2-[(2,6-dipyrrolidin-1-ylpyrimidin-4-yl)amino]ethyl}(methyl)amino]ethyl}amino)carbonothioyl]amino}benzenesulfonamide]",≤ 10 µM
13,"CN(CCNC(=O)NCc1ccccc1)CCNc1cc(N2CCCC2)nc(N2CCCC2)n1 [Example 8, N-benzyl-N′-{2-[{2-[(2,6-dipyrrolidin-1-ylpyrimidin-4-yl)amino]ethyl}(methyl)amino]ethyl}urea]",≤ 10 µM
